Source: patent publication US20250122301A1 (IBIO, published 2025)
No constants are given. Whether binding was seen depends on the method and setting. Some binding calls cover weakened binding; strength is not graded here.

Chains of the proteins cited; added tags and fusions are not shown. Lines headed by an entry give the natural chain unless they say otherwise; changes in a name come on top. A line that says so, or that is headed by a name, gives the form on record, which may keep a tag or linker. Residues count along the entry.
UniProt P01589: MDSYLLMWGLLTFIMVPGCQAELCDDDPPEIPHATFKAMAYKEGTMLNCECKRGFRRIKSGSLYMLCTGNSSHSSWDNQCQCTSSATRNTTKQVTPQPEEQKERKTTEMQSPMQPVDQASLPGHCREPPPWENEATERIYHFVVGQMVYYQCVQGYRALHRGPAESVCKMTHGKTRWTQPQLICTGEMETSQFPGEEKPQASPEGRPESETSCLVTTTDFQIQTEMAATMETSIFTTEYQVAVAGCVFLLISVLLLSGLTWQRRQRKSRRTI
CD25 on CD25+ cells (SUDHL-1, HEK IL-2 reporter cells, primary human regulatory T cells): residues 22-272 of P01589
full-length CD25 (human CD25, recombinant protein used on biosensors): residues 22-213 of P01589
recombinant cynomolgus monkey (cyno) CD25 (H6WS54, form named): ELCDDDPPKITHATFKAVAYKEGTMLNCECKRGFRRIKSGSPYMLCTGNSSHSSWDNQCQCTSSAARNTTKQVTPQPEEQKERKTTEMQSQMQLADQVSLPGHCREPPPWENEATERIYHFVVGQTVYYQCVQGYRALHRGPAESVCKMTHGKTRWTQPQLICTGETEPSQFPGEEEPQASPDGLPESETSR

Experiments:
[1] = molecular target: CD25 on CD25+ cells (SUDHL-1, HEK IL-2 reporter cells, primary human regulatory T cells) (human) (UniProt P01589); experiment: flow cytometry, 10 ug/mL antibody, HEK IL-2 reporter cells (CD25+)
[2] = molecular target: CD25 on CD25+ cells (SUDHL-1, HEK IL-2 reporter cells, primary human regulatory T cells) (human) (UniProt P01589); experiment: flow cytometry, SUDHL-1 and HEK IL-2 reporter cells
[3] = molecular target: full-length CD25 (human CD25, recombinant protein used on biosensors) (human) (UniProt P01589); experiment: BLI (Octet RED384): antibody on AR2G sensor, 300 nM full-length CD25, 1:1 fit
[4] = molecular target: CD25 on CD25+ cells (SUDHL-1, HEK IL-2 reporter cells, primary human regulatory T cells) (human) (UniProt P01589); experiment: flow cytometry, 10 ug/mL antibody, SUDHL-1 cells (CD25+)
[5] = molecular target: recombinant cynomolgus monkey (cyno) CD25 (cynomolgus monkey) (UniProt H6WS54); experiment: ELISA on coated recombinant cyno CD25, OD450
[6] = molecular target: full-length CD25 (human CD25, recombinant protein used on biosensors) (human) (UniProt P01589); experiment: Octet BLI, IgG1 immobilised on AR2G, 300 nM full-length CD25

Measured: binding

B1: D5 (human IgG1 reformatted) (antibody, V domains shown)
VH: QVQLQQSGAELVRPGTSVKISCKASGYTFTNYWLGWVKQRPGHGLEWIGDIYPGGGYTNYNEKFKGKATLTADTSSSTAYMQLSSLTSEDSAVYFCARVTPASWGQGTSLTVSS
VL: DIVMTQSQKFMSTSVGDRVSVTCKASQNVGTNVAWYQQKPGQSPKALIYSASYRYSGVPDRFTGSGSGTDFTLTISNVQSEDLAEYFCQQYNSYPYTFGGGTKLEMK
binds: [1] | [2] | [3] | [4]

B2: AH05274 (human IgG1 reformatted) (antibody, V domains shown)
VH: QVQLQQSGAELVRPGTSVKISCKASGYTFTNYWLGWIKQRPGHGLEWIGDIYPGGGYTNYNEKFKGKATLTADTSSSTAYMQLSSLTSEDSAVYFCARVTPASWGQGTSLTVSS
VL: DIQMTQSQKFMSTSVGDRVSVTCKASQNVGTNVAWYQQKPGQSPKALIYSASYRYSGVPDRFTGSGSGTDFTLTISNVQSEDLAEYFCQQYNSYPYTFGGGTKLEIK
not listed: [6]
binds: all other assays above

B3: D17 (human IgG1 reformatted) (antibody, V domains shown)
VH: QIQLQQSGAELVRPGTSVKISCKASGYTFTNYWLGWVKQRPGHGLEWIGDIYPGGGYTNYNEKFKGKATLTADTSSSTAYMQLSSLTSEDSAVYFCARVTPASWGQGTTLTVSA
VL: DILLTQSQKFMSTSVGDRVSVTCKASQNVGTNVAWYQQKPGQSPKALIYSASYRYSGVPDRFTGSGSGTDFTLTISNVQSEDLAEYFCQQYNSYPLTFGGGTKLEIK
binds: [5] | [3] | [6]

B4: AH05214 (human IgG1 reformatted) (antibody, V domains shown)
VH: QIQLQQPGAELVKPGASVKLPCKASGYTFTSYWMHWVKQRPGQGLEWIGEINPSNGRTNYNEKFKSKATLTVDKSSSTAYMQLSSLTSEDSAVYYCARQLAAYWGQGTTVTVSS
VL: DILLTQSPALMAASPGEKVTITCSVSSSISSSNLHWYQQKSETSPKPWIYGTSNLASGVPVRFSGSGSGTSYSLTISSMEAEDAATYYCQQWSSYPLTFGGGTKLEIK
binds: [1] | [2] | [4]

B5: AH05257 (human IgG1 reformatted) (antibody, V domains shown)
VH: QVQLQQSGAELVRPGVSLKISCKGSGYTFTDYAMHWVRQSHAKSLEWIGVISTYSGDAIYNQKFKGKATMTVDKSSSTAYLELARLTSEDSAIYYCARGVTFDYWGQGTTLTVSA
VL: DIVMTQSTSSLSASLGDRVTISCRASQDISNYLSWYQQKPDGTIKLLIYYTSRLHSGVSSRFSGSGSGTDYSLTISNLEQEDFATYFCQQGHTLPPTFGGGTKLEIK
binds: [1] | [2] | [3] | [4]

B6: AH05258 (human IgG1 reformatted) (antibody, V domains shown)
VH: QIQLQQSGAELVRPGVSVKISCKGSGYTFTDYAMHWVKQSHAKSLEWIGVISTYSGDVSYNQKFKGKATMTVDKSSSTAYMELARLTSEDSAIYYCARGVTFDSWGQGTTLTVSS
VL: DIVMTQSHKFMSTSVGDRVSITCKASQDVSTAVAWYQQKPGQSPKLLIYSASYRYTGVPDRFTGSGSGTDFTFTISSVQAEDLAVYYCQQHYSTPFTFGSGTKLEIK
binds: [1] | [2] | [3] | [4]

B7: AH05259 (human IgG1 reformatted) (antibody, V domains shown)
VH: QVQLQQSGAELVRPGVSVKISCKGSGYTFTDYAMHWVKQSHAKSLEWIGVISTYSGDVSYNQKFKGKATMTVDKSSSTAYMELARLTSEDSAIYYCARGVTFDSWGQGTSLTVSS
VL: DIQMTQTPASLSASVGETVTITCRASENIYSFLEWFQQKQGKSPQLLVYNAKTLAEGVPSRFSVSGSGTQFSLKINSLQPEDFGSYYCQHHYGIPYTFGGGTKLEIK
not listed: [5]
binds: all other assays above

B8: D36 (human IgG1 reformatted) (antibody, V domains shown)
VH: QVQLQQPGAELVRPGVSLKISCKGSGYTFTDYAMHWVRQSHAKSLEWIGVISTYSGDALYNQKFKGKATMTVDKSSSTAYLELARLTSEDSAIYYCARGVTFDYWGQGTTLTVSS
VL: DVVMTQSPASLSASVGETVTITCRASENSYSYLEWYQQKQGKSPQLLVYNAKTLAEGVPSRFSGSGSGTQFSLKINSLQPEDFGTYYCQHHYGTPYTFGGGTKLEMK
binds: [5] | [3] | [6]

B9: AH05271 (human IgG1 reformatted) (antibody, V domains shown)
VH: QVQLQQSGAELVRPGVSVKISCKGSGYTFTDYAMHWVKQSHAKSLEWIGVISTYSGDVSYNQKFKGKATMTVDKSSSTAYMELARLTSEDSATYYCARGVTFDSWGQGTTLTVSS
VL: DIQMTQTPASLAASVGETVTITCRASENIYFSLAWYQQKQGKSPQLLIYNANTLEDGVPSRFSGSGSGTQFSMKINNMQPEDTATYFCKQAYDVPWTFGGGTKLEIK
binds: [1] | [2] | [3] | [4]

B10: AH05286 (human IgG1 reformatted) (antibody, V domains shown)
VH: QVQLKQSGADLMKPGASVKISCKASGYTFSNYWIEWIKQRPGHGLEWIGEILPGSGYTNYNENFKGKATFTADTSSNTTYIQLSSLSSEDSAVYYCARGGTSFVHFDYWGQGTTLTVSS
VL: DIVLTQSPPTLSLSPGERVTLSCKASQDVNTAVAWYQQKPGQAPRLLIYWASTRHTGVPSRFSGSGSGTDFTLTISSLQPEDFATYYCQQHYSSPWTFGGGTKLEIK
binds: [1] | [2] | [3] | [4]

B11: BP003-T2P1D1 (human IgG1 reformatted) (antibody, V domains shown)
VH: QVQLQQSGAELVRPGVSLKISCKGSGYTFTDYAMHWVRQSHAKSLEWIGVISTYSGDAIYNQKFKGKATMTVDKSSSTAYLELARLTSDDSAIYYCARGVTFDYWGQGTTVTVSS
VL: DVVMTQSPASLSASVGETVTITCRASENSYSYLEWYQQKQGKSPQLLVYNAKTLAEGVPSRFSGSGSGTQFSLKINSLQPEDFGTYYCQHHYGTPYTFGGGTKLEIK
not listed: [5]
binds: all other assays above

B12: AH04526 (human IgG1 reformatted) (antibody, V domains shown)
VH: QVQLQQSGAELVRPGTSVKMSCKAAGYTFTNYWIGWVKQRPGHGLEWIGDIHPGGDYSNYNEKFKGKATLTADTSSSTAYMNLSSLTSEDSAIYYCTSRNFAYWGQGTPVTVSS
VL: DTTVTQSQKFMSTSVGDRVSVTCKASQNVGTNVAWYQQKPGQSPKALIYSASYRYSGVPDRFTGSGSGTDFTLTISNVQSEDLAEYFCQQYNSYPYTFGGGTKLEMK
binds: [3] | [6]

B13: D11 (human IgG1 reformatted) (antibody, V domains shown)
VH: QIQLQQPGAELVRPGVSLKISCKGSGYTFTDYAMHWVRQSHAKSLEWIGVISTYSGDAIYNQKFKGKATMTVDKSSSTAYLELARLTSDDSAIYYCARGVTFDYWGQGTTVTVSS
VL: DIQMTQTTSSLSASLGDRVTITCRASQDISNYLEWYQQKQGKSPQLLVYNAKTLAEGVPSRFSGSGSGTQFSLKINSLQPEDFGSYYCQHHYDTPYTFGGGTKLEIK
binds: [5] | [3] | [6]
